Test results reported in patent US9797889B2, “Activation of bioluminescence by structural complementation” (Promega Corporation, priority 2013, dated 2017).

B1: 5P: non-luminescent polypeptide variant 5P (protein)
chain: MVFTLEDFVGDWEQTAAYNLDQVLEQGGVSSLFQNLAVSVTPIQRIVLSGENALKIDIHVIIPYEGLSADQMAQIEKIFKVVYPVDDHHFKVILHYGTLVIDGVTPNMINYFGRPYEGIAVFDGKKITVTGTLWNGNKIIDERLITPDGSMLFRVTINP

What was measured:
U2OS cells [1] = experiment: Subcellular localization of NLpep-HaloTag fusions (Example 48); format: cell-based; conditions: N-terminal fusions to HaloTag, TMR ligand
U2OS cells [2] = experiment: Subcellular localization of NLpoly WT and 5P by ICC (Example 49); format: cell-based

Molecule | intracellular localization of HaloTag fusion (U2OS cells [1]) | intracellular localization of NLpoly (U2OS cells [2])
NVSGWRLFKKISN [NLpep78] | do not alter the intracellular localization of the HaloTag protein | –
NVTGYRLFKKISN [NLpep79] | do not alter the intracellular localization of the HaloTag protein | –
B1 | – | localize uniformly in cells
